The campaign covered roughly 31,000 sequences. About 1,400 (4.5%) were called active.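 The calls were made as follows: active = median seed-adjusted z-score above 1 or below -1; inactive = the rest.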 The list shows a part of the results.

A short description of the experiment: Novel Modifiers of Survival Motor Neuron (SMN) Protein: Gene Identification via Genome-wide siRNA Screen.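 Also: luminescence tracks full-length SMN protein made from the SMN2 reporter.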 Particulars: HEK293T SMN2-luciferase reporter, siRNA knockdown, 72 h; actives lie on both sides. Put shortly: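 Steps: spot 1 pmol siRNA, add Lipofectamine RNAiMax in serum-free DMEM, seed HEK293T SMN2–luciferase reporter cells; incubate 72 h at 37 °C; add ONE-Glo; normalize luminescence to control siRNA, log10, MAD. Candidates: |MAD| > 1.0.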
GGCCCAUUCUGGGAUCAGUTT against POFUT1: the median seed-adjusted z-score is inactive: 0.

As to GCAUCCAUAGAGUAAUAAATT against ZNF444, the median seed-adjusted z-score is inactive: -0.218.

As to GAGGCCAGGUUGAAAGCUUTT against SLC25A45, the median seed-adjusted z-score was inactive: -0.246.

Consider GGCAUGGGAUGGACAGAGATT against ZNF444, for which the median seed-adjusted z-score was inactive: -0.218.

On to GGUAAUGAAUAUUCGAACATT against MAN1A1, for which the median seed-adjusted z-score was inactive: 0.

Take GAAUAGUUAGGAUACCAAUTT against EFHD1: the median seed-adjusted z-score was inactive: -0.326.

For GCCUGUCAAUUCUUAUAUATT against SLC10A5, the median seed-adjusted z-score was inactive: 0.539.

GGAGAAGAAUUUCACGAGATT against VPS41: the median seed-adjusted z-score is inactive: 0.52.

For the sequence AGAUCGACAAGAUGCAAGATT against FOXN1, the median seed-adjusted z-score is inactive: 0.226.

Take CGAUCGAUGUGAUCAUCUUTT against AGPAT6: the median seed-adjusted z-score is inactive: 0.

Regarding AGAUUAAGGAUAUGGAUGATT against CHRNA9, the median seed-adjusted z-score was inactive: -0.454.

For the sequence GGUGGGAGAUUGAACGGGATT against RNF113B, the median seed-adjusted z-score was inactive: -0.228.

Consider GCAUUUGUUUGGGUUGCGATT against MTF2, for which the median seed-adjusted z-score was inactive: 0.

Take AAAGGAAUUGGGAACUGUATT against CALM2: the median seed-adjusted z-score is inactive: 0.127.

For CGGAAAACCUGCAAUCCUATT against PIK3C2B, the median seed-adjusted z-score is inactive: -0.653.

Consider GCUCAGAUAAAGUACAGAATT against GGCX, for which the median seed-adjusted z-score was inactive: -0.362.

As to CUGCAGUUGUGGUUGGAUATT against AOF2, the median seed-adjusted z-score is inactive: -0.215.

Take AAUACGUGGAAGAAUCUAATT against LETM1: the median seed-adjusted z-score was inactive: -0.491.

Take GGAUGAUCUUGUAACUCGATT against STX8: the median seed-adjusted z-score was inactive: 0.475.

CUAUUGCAGGUUUGACUAUTT against PGM5: the median seed-adjusted z-score is inactive: -0.0543.

As to CAUCAAUUCUUCGACAGGATT against PPP3CA, the median seed-adjusted z-score was inactive: 0.74.

As for GAAUGUGGUUUUUGUUAUUTT against ITIH5L, the median seed-adjusted z-score is inactive: -0.407.

Consider “GCACCUUUAUCGCAAGUAUTT against CSGALNACT1”, for which the median seed-adjusted z-score was inactive: -0.235.

For the sequence CGAGUAUACAGUAUACAGATT against CHAF1B, the median seed-adjusted z-score was inactive: 0.634.

With GCAAUUGUCUGAUUAAUCATT against MB, the median seed-adjusted z-score is inactive: 0.504.

As to GAAACGUGGUGAGACCUCATT against PRKX, the median seed-adjusted z-score was inactive: 0.0341.

GAGUUUGGAAAGUUACUAATT against EIF3J: the median seed-adjusted z-score is inactive: -0.411.

With CCGCUGGAAAUAUCACUUUTT against GCNT3, the median seed-adjusted z-score is inactive: 0.

For GAGUCGAGAAGAUAAUGGATT against RABGEF1, the median seed-adjusted z-score was inactive: 0.278.

Turning to GGCUAUCUUGGAUGCAGAATT against TBC1D10A, the median seed-adjusted z-score is inactive: -0.722.

AAUUCUUCGUCAAAGUCUATT against TRNAU1AP: the median seed-adjusted z-score was inactive: 0.52.

Take GCAGCUGCCCAAACAGUUUTT against CRTC2: the median seed-adjusted z-score was inactive: -0.691.

GGAAGAUCUUGGACUUAUUTT against JARID1B: the median seed-adjusted z-score is inactive: 0.

Turning to GACCCUCACUAGUAAACUUTT against GBP3, the median seed-adjusted z-score is inactive: -0.864.

As to GACGAGCUGUUCGACGUAATT against COPE, the median seed-adjusted z-score is inactive: 0.499.

For CGAUGCACCUGUACGAUCATT against IL1B, the median seed-adjusted z-score was inactive: -0.21.

For ACCGAGACCUCAAACCUGATT against PSKH1, the median seed-adjusted z-score is active: -2.03.

As for GGAAUAACAGUUGUAGGAATT against TMTC3, the median seed-adjusted z-score is inactive: 0.266.

Take GGACCACCUAUGGACUAUATT against RBM6: the median seed-adjusted z-score is inactive: 0.193.

As to GUUCUACCGUGGACAGCAATT against CLCN1, the median seed-adjusted z-score was inactive: 0.314.

Consider GCAUCCGCAACUUCACUGATT against SLC7A4, for which the median seed-adjusted z-score is inactive: -0.102.

CAUACGCAGAACAAAGUUATT against KHDRBS1: the median seed-adjusted z-score was inactive: 0.0916.

With CAUUGACCGCACAAACUUUTT against ACYP2, the median seed-adjusted z-score is inactive: 0.286.

Regarding CCAAUGUGCUGUUCGCCUATT against ZNHIT2, the median seed-adjusted z-score is inactive: -0.339.

Turning to CAAACCAGUUAAUCCAGAATT against ALK, the median seed-adjusted z-score was inactive: 0.0139.

Regarding CAGUUAUGGUCUAACCAUUTT against CYP1B1, the median seed-adjusted z-score is inactive: -0.261.

In the case of AAAAUGUCUUGAGAAGAUATT against EIF2S2, the median seed-adjusted z-score was inactive: 0.576.

In the case of AGAAGUCUGUUGCUAUGCATT against GNB5, the median seed-adjusted z-score is inactive: -0.535.

Regarding GUGUUGACAUGAGUACCAATT against ARAF, the median seed-adjusted z-score is inactive: 0.535.

Take GAAAUACUGUCGGACAGAATT against MAN1C1: the median seed-adjusted z-score was inactive: -0.548.

As to GAUGGAACCGUUUACAAUATT against RPE65, the median seed-adjusted z-score was inactive: -0.655.

GCUGGGAACCUACUCAUUATT against PAQR6: the median seed-adjusted z-score is inactive: 0.632.

For the sequence GUAUCACGCAGUUACCAAATT against GSR, the median seed-adjusted z-score was inactive: -0.467.

GAUCAUGGAUUAGAACUGUTT against MOGAT1: the median seed-adjusted z-score was inactive: 0.293.

As to GGGUUGAGCUCCAAAGAAUTT against B4GALT4, the median seed-adjusted z-score is inactive: -0.0479.

For GUUACUUCCGAAUCCAUGATT against ZNF627, the median seed-adjusted z-score was inactive: 0.204.

Turning to CCUUUUCCUGUAGAUCAAATT against BACH2, the median seed-adjusted z-score was inactive: 0.

GCUUUGCAGUGAAUAUCGATT against SPINK5: the median seed-adjusted z-score is inactive: 0.26.

Take GCAAUGUGAACAACCCUAUTT against CAPN6: the median seed-adjusted z-score is inactive: 0.0288.

Consider GGACUGGAAUUUUGAGAGATT against PLSCR1, for which the median seed-adjusted z-score is inactive: 0.661.

For ACACGCUCAUUUCAUCACATT against PET112L, the median seed-adjusted z-score is inactive: 0.235.

As for AAACGAUUUUUACUCAUAUTT against PDCD2, the median seed-adjusted z-score was inactive: -0.232.

On to CCGUCGAAUUUGAAGGUGATT against SULF1, for which the median seed-adjusted z-score was inactive: -0.128.

As to CCUUGUCUGUGCUCAAGUATT against USP35, the median seed-adjusted z-score was inactive: -0.219.

In the case of CAUUCGCAAUGUCUCCUGUTT against GPR114, the median seed-adjusted z-score was inactive: 0.805.

For the sequence GACCUUGACUUUGAUAUCATT against MPHOSPH10, the median seed-adjusted z-score was inactive: 0.374.

Regarding GGAGUUUUUCGGAGCUGUATT against SIPA1, the median seed-adjusted z-score is inactive: -0.0872.

CUGAUCCUCUGGAUAAUCATT against SPTLC1: the median seed-adjusted z-score is inactive: 0.0941.

Regarding CAGUUACUCCAGAGGCUAATT against RAB42, the median seed-adjusted z-score was inactive: 0.241.

GAUCCAGAAGGGUAGUUAUTT against SERPINB2: the median seed-adjusted z-score is inactive: -0.0739.

For the sequence GGUGGAAGUGGUCAACGUATT against DUSP21, the median seed-adjusted z-score was inactive: -0.0724.

With GAAACGCAGAGGGAUCAUATT against HEYL, the median seed-adjusted z-score was inactive: 0.48.

In the case of CGAGGAAUAUAUAGGUGUATT against CD3D, the median seed-adjusted z-score was inactive: -0.403.

Turning to GCAUCUAGGUAGCAAUGUUTT against SLITRK5, the median seed-adjusted z-score was inactive: 0.165.

For the sequence GGAACAGUGCCGGCAAGAATT against CYP4F11, the median seed-adjusted z-score was inactive: 0.307.

With CAAUCAGAAUUACUAGAUUTT against TXNDC11, the median seed-adjusted z-score was inactive: 0.642.

Take CUCCUAAAGUGAUUGGUAUTT against HSPA13: the median seed-adjusted z-score was inactive: 0.

For GGUAAGAAGGAUUCCAUUATT against SHOX, the median seed-adjusted z-score was inactive: 0.316.

On to GGACCCUACCAGAACUACATT against SEMA6D, for which the median seed-adjusted z-score is inactive: 0.0624.

On to CAAAUAAGAAGGCCCAAUATT against SAV1, for which the median seed-adjusted z-score is inactive: 0.766.

Turning to GCAGCUCAGCAGUUUAGUATT against MYO18A, the median seed-adjusted z-score was inactive: 0.174.

On to GCAAGGCUAUUAUAGAUCATT against CTNNA3, for which the median seed-adjusted z-score was inactive: 0.249.

Regarding ACACCACGCUCAACAUCAATT against ZBED1, the median seed-adjusted z-score is inactive: 0.0567.

Turning to CGGAUGAAAUCCUGACGUATT against AHR, the median seed-adjusted z-score is inactive: -0.0422.

Regarding CCAGGUCCAUGGAAAGAAATT against NEIL2, the median seed-adjusted z-score was inactive: -0.256.

Take CCAUUGACUUUCAAUUAUUTT against PVRL3: the median seed-adjusted z-score was inactive: -0.0385.

As for GAAUGCUGUUUAUCUUAAUTT against PNPLA1, the median seed-adjusted z-score was inactive: 0.00692.

In the case of GGGUCCCUAUUAUCCAGCATT against BAT3, the median seed-adjusted z-score was inactive: 0.567.

Consider GGAGAAAGAAUGACGAGAATT against TGFBR2, for which the median seed-adjusted z-score was inactive: 0.8.

Consider CGUAAUCAAAUCUACCAAATT against LGR4, for which the median seed-adjusted z-score is inactive: 0.14.

Turning to GAAAGAAUUUCACUACAAUTT against HOXB7, the median seed-adjusted z-score is inactive: -0.153.

In the case of CAAGCCGGAUGGUACGUAUTT against CDA, the median seed-adjusted z-score was inactive: 0.471.

Take GGAUUACAGGAGGCAAUCATT against PGM3: the median seed-adjusted z-score is inactive: -0.527.

With CAUUGUCAGUCGGAGUAUATT against RPA4, the median seed-adjusted z-score was inactive: 0.132.

As for CUUCUGAGAUUUCGACGAATT against GLRA3, the median seed-adjusted z-score is inactive: 0.0585.

With GGCGAUCACAGAUAUCAUUTT against RABGEF1, the median seed-adjusted z-score is inactive: 0.278.

With GAAAGACGAGAACUAUUUATT against EHF, the median seed-adjusted z-score is inactive: 0.581.

Consider CUAUGACCAAUGAACCAGATT against SERINC1, for which the median seed-adjusted z-score is inactive: -0.255.

In the case of GAGUAAGUGAAAUAGAACATT against ZBTB26, the median seed-adjusted z-score is inactive: 0.

Take GGAUCCAAAUGGACAUUCATT against MLF1: the median seed-adjusted z-score was inactive: 0.258.

For the sequence UCUUCACCGUGUGCCUAGATT against CRAT, the median seed-adjusted z-score is active: -1.42.

As to AGUUCUCUCAGGACGGUAATT against IDUA, the median seed-adjusted z-score was inactive: -0.353.

Regarding AGAGCUGAGUGGUAGCUUATT against FGD3, the median seed-adjusted z-score is inactive: 0.245.

Regarding GCCUCGUUCUGAAGACGAUTT against LIPC, the median seed-adjusted z-score is inactive: 0.244.

In the case of ACUCAUCAAUGGAGGUGUATT against SLC25A18, the median seed-adjusted z-score is inactive: -0.0227.

As to GAAUCUAUGAGCUUCGAAATT against PSMB5, the median seed-adjusted z-score was active: -1.37.

Consider CAAGGACCUUUACCGAACATT against PTPRJ, for which the median seed-adjusted z-score is inactive: 0.0522.
